Test results published in paper PMC8474885.

Target: 3Flag-tagged p113 (human)
Test: affinity purification with mass spectrometry; co-IP with p113 or Flag-tag antibody from SH-SY5Y cells stably transfected with 3Flag-tagged p113; bead-bound proteins analysed by mass spectrometry; hits overlapped with transcription and epigenetic factor databases

B1: Zuotin-related factor 1 (ZRF1), endogenous (protein, UniProt Q99543 1-621)
chain: MLLLPSAADGRGTAITHALTSASTLCQVEPVGRWFEAFVKRRNRNASASFQELEDKKELSEESEDEELQLEEFPMLKTLDPKDWKNQDHYAVLGLGHVRYKATQRQIKAAHKAMVLKHHPDKRKAAGEPIKEGDNDYFTCITKAYEMLSDPVKRRAFNSVDPTFDNSVPSKSEAKDNFFEVFTPVFERNSRWSNKKNVPKLGDMNSSFEDVDIFYSFWYNFDSWREFSYLDEEEKEKAECRDERRWIEKQNRATRAQRKKEEMNRIRTLVDNAYSCDPRIKKFKEEEKAKKEAEKKAKAEAKRKEQEAKEKQRQAELEAARLAKEKEEEEVRQQALLAKKEKDIQKKAIKKERQKLRNSCKTWNHFSDNEAERVKMMEEVEKLCDRLELASLQCLNETLTSCTKEVGKAALEKQIEEINEQIRKEKEEAEARMRQASKNTEKSTGGGGNGSKNWSEDDLQLLIKAVNLFPAGTNSRWEVIANYMNIHSSSGVKRTAKDVIGKAKSLQKLDPHQKDDINKKAFDKFKKEHGVVPQADNATPSERFEGPYTDFTPWTTEEQKLLEQALKTYPVNTPERWEKIAEAVPGRTKKDCMKRYKELVEMVKAKKAAQEQVLNASRAKK
For B1, the binding was “binds”.

No constants are given. Whether binding was seen depends on the method and setting. Binding seen in cells or lysates may run through a third protein. These calls come from enrichment with a bait or labelling near it, and not all partners need be listed.
